This is one part of the list. Shown are side measurements of this screen, not its main read-out; they come without a call. Compounds called inactive in the main read-out are mostly missing here. The note in brackets gives the kind of curve behind each potency; many fits are weak.
Test: qHTS Assay for Lipid Storage Modulators in Drosophila S3 Cells;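 on cell number change: cells counted by Cell Tracker Red CMTPX staining in the red channel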
Conditions: BODIPY lipid droplet fluorescence, 18-24 h; for cell number change: measured here: cell count max response, cells fed with added oleic acid
Procedure, shortened: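 Drosophila S3 cells got compounds at several concentrations plus oleic acid (400 uM solution). Laser-scanning cytometry with 488 nm excitation read lipid droplets at 500-530 nm and cells at 575-640 nm. Percent activity was relative to 20 uM Triacsin C.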

[1] = measured here: cell number channel AC50, cells fed with added oleic acid
[2] = measured here: lipid fluorescence (Fed channel) AC50, cells fed with added oleic acid

For `CC1(C)CC(=O)C(C=NCCN2CCN(CC(=O)Nc3ccc(Cl)cc3)CC2)=C(O)C1`, the cell number change was -9.34% and the AC50 [1] was 0.00461 µM [falling, full curve, poor fit].
In the case of `Cc1ccc2c(c1)c(C)c(C)n2CC(O)CN1CCCCC1C` (stereo not given), the cell number change is reported as -33.7%, the AC50 [1] is reported as 0.0058 µM [falling, full curve, poor fit] and the AC50 [2] is reported as 5.8 µM [falling, full curve].
With `Cc1nc2nc[nH]n2c(=O)c1C/C=C/c1ccccc1` the cell number change was 8.02%.
For `O=C(NC(=S)Nc1cc(Cl)ccc1N1CCOCC1)c1ccccc1[N+](=O)[O-]`, the cell number change was -57.4%, the AC50 [1] was 10.3 µM [falling, partial curve, poor fit] and the AC50 [2] was 29.1 µM [falling, single point].
In the case of `C/C(CC(=O)Nc1ccc2ccccc2c1)=N\NC(=O)c1cnccn1`, the cell number change is reported as 2.91% and the AC50 [2] is reported as 13 µM [rising, partial curve, poor fit].
For `Cc1cccc2cc(CN(Cc3ccccc3)C(=O)N(C)C)c(=O)[nH]c12`, the cell number change was 20.7% and the AC50 [2] was 1.84 µM [rising, partial curve].
In the case of `CNC(=S)N1CCN(c2c(F)cc3c(=O)c(C(=O)O)cn(C4CC4)c3c2OC)CC1C` (stereo not given), the cell number change is reported as -33.9%, the AC50 [1] is reported as 7.31 µM [falling, partial curve] and the AC50 [2] is reported as 16.4 µM [falling, single point].
With `CCCCNC(=S)N1CCN(CC)CC1` the cell number change was 2.08% and the AC50 [2] was 0.103 µM [falling, full curve, poor fit].
With `COc1cccc(N(CC(=O)NC2CCCCCC2)S(=O)(=O)c2ccccc2)c1` the cell number change was 12.9% and the AC50 [1] was 6.51 µM [rising, single point].
For `O=C(NCc1cccc(Cl)c1)c1cccc(S(=O)(=O)N2CCCCC2)c1`, the cell number change was -6.14%, the AC50 [1] was 0.116 µM [falling, full curve, poor fit] and the AC50 [2] was 0.103 µM [falling, full curve, poor fit].
With `COc1ccc(NC(=O)N2CCN(S(=O)(=O)c3ccc(F)cc3)CC2)c(OC)c1` the cell number change was 7.23% and the AC50 [2] was 2.91 µM [rising, single point].
For `COc1ccc(C)cc1NC(=O)C(Sc1nnc(Nc2cc(C)ccc2OC)s1)c1ccccc1` (stereo not given), the cell number change was 22.9% and the AC50 [2] was 2.06 µM [rising, partial curve].
With `Cc1ccc(C)c(N2CCN(c3ncccc3[N+](=O)[O-])CC2)c1` the cell number change was -26.3% and the AC50 [2] was 5.17 µM [falling, partial curve].
With `CC(=O)N(Cc1cc(=O)[nH]c2ccccc12)c1cccc(C)c1` the cell number change was 5.48% and the AC50 [2] was 6.51 µM [rising, single point].
For `CCOC(=O)N1CCC(N2CCCC(C(=O)c3cc(C)c(OC)c(C)c3)C2)CC1` (stereo not given), the cell number change was 28.3% and the AC50 [2] was 2.31 µM [falling, single point].
With `CCC(C)c1ccc(OCC(=O)Nc2ccc(CN3CCOCC3)cc2)cc1` (stereo not given) the cell number change was -20.1% and the AC50 [2] was 29.1 µM [rising, single point].
With `CN(C)S(=O)(=O)c1ccc2c(c1)nc1n2CCC1` the cell number change was -29.8% and the AC50 [2] was 0.00731 µM [falling, full curve, poor fit].
In the case of `C/C(=N\O)C(C)(C)Nc1cccc(F)c1`, the cell number change is reported as -14.5% and the AC50 [2] is reported as 5.17 µM [falling, full curve, poor fit].
For `NC(=O)Cn1cc(C(=O)c2cccs2)c2ccccc21`, the cell number change was -15.4% and the AC50 [2] was 20.6 µM [rising, single point].
With `CCC(Sc1ccc2nnc(-c3cccnc3)n2n1)C(=O)O` (stereo not given) the cell number change was -129%, the AC50 [1] was 18.4 µM [falling, partial curve] and the AC50 [2] was 18.4 µM [falling, partial curve].
In the case of `COc1ccc(-c2sc(Nc3ccccc3)n[n+]2-c2ccccc2)cc1Br`, the cell number change is reported as 62.5%, the AC50 [1] is reported as 16.4 µM [rising, partial curve] and the AC50 [2] is reported as 18.4 µM [rising, single point].
For `COc1cc(C(=O)NC(=S)NC(C)C)cc(OC)c1OC`, the cell number change was 27.1% and the AC50 [2] was 0.92 µM [rising, partial curve].
For `CN(Cc1ccccc1)C(=O)CSc1n[nH]c(N)n1`, the cell number change was 4.17%, the AC50 [1] was 0.0291 µM [falling, full curve, poor fit] and the AC50 [2] was 29.1 µM [rising, single point].
`CCC(=O)N1c2ccc(S(=O)(=O)CCC(=O)N3CCN(c4ccccc4F)CC3)cc2CC1C` (stereo not given) gave a cell number change of 11%.
For `Cc1ccc(C(=O)N/C(=C/c2cccs2)C(=O)NCC2CCCO2)cc1` (stereo not given), the cell number change was 9.63%, the AC50 [1] was 6.51 µM [falling, single point] and the AC50 [2] was 6.51 µM [falling, partial curve].
With `O=S(=O)(NCC1CCCO1)c1cc(Br)c(Br)s1` (stereo not given) the cell number change was 132%, the AC50 [1] was 16.4 µM [rising, partial curve] and the AC50 [2] was 16.4 µM [rising, partial curve].
`CCOC(=O)c1sc(=NC(=O)c2ccc(Cl)s2)n(C)c1C` showed a cell number change of -5.23%.
